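Primary screen of methionyl-tRNA synthetase; the read-out is not stated. Target: Methionyl-tRNA synthetase (putative), Leishmania donovani (UniProt E9BF75). The test concentration is not given. The values are filed as inhibition. About 68,000 compounds were tested under these conditions; 0.035% (about 24) showed 50% or more at least once.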

Sequences of proteins named here, by UniProt entry; tags and fusion partners are left off.
UniProt E9BF75, entry or part of it: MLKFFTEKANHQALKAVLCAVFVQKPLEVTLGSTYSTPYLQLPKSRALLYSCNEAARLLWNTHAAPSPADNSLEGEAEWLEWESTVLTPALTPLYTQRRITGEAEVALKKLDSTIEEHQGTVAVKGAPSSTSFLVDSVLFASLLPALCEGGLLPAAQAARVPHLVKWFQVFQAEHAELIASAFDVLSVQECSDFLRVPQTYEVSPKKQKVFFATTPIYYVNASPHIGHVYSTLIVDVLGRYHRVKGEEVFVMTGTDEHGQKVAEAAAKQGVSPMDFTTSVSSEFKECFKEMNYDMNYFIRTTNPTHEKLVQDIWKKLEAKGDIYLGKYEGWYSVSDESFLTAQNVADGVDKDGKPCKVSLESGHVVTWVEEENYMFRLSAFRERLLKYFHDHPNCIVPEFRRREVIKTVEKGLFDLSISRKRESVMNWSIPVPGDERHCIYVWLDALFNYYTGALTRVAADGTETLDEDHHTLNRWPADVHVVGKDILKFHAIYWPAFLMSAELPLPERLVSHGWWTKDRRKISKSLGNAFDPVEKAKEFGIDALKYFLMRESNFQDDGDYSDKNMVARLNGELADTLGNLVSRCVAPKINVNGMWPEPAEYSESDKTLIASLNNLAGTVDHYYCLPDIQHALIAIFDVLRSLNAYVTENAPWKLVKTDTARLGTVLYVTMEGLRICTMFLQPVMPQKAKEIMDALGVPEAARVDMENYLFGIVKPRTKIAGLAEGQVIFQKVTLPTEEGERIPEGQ

All values are in %. The controls that fix the scale are not given in the record; negative values are as filed. The compounds are a random part of those screened.

Compound	inhibition
COc1ccc(CCC(=O)N2CCNCC2C(=O)N2CCCC2)cc1 (stereo not shown)	20.63
CCOc1ccc(C(=O)NC2CC2)cc1C	9.059
CN(Cc1nnc(C2CC2)o1)C1CCN(CCc2cccs2)C1 (stereo not shown)	4.965
CC(C)(C)NC(=O)CNc1ncccn1	15.97
Cc1nn(CCC#N)c(C)c1CCC(=O)N(C)Cc1ccsc1	1.272
O=C(CCn1cncn1)NCC1CCOC1 (stereo not shown)	2.997
c1cnc(-c2nc(CN3CCN(CC4CC4)CC3)cs2)nc1	13.65
Cc1ccc(CN2CCc3c(C(=O)N(C)C)nn(C)c3C2)s1	13.5
Cc1[nH]c(-c2ccccc2)nc1C(=O)N1CCC2(CCCO2)CC1	15.62
CCOC(=O)COC1CCN(C(C)=O)CC(=O)N(C)c2ccccc21 (stereo not shown)	17.81
COc1cccc(S(=O)(=O)CCNC2CCc3ncnn3C2)c1 (stereo not shown)	22.4
O=C(NCc1nnc2n1CCCCC2)N1CCC2(CCCCC2)C1	4.872
CCCC(C#N)NC(=O)c1cc(Br)c2c(c1)OCCO2 (stereo not shown)	19.94
CC(NS(N)(=O)=O)c1ccc(OCc2ccc(F)cc2)cc1 (stereo not shown)	15.24
COc1cc(N2CCC(c3nccn3Cc3ccccc3)CC2)ncn1	16.4
Cc1ccc(CN2CCC3(CC(=O)N(c4ccc5c(c4)OCO5)C3)C2)o1 (stereo not shown)	7.843
c1cc(CN2CCc3cncnc3C2)c2c(c1)OCCO2	15.38
CCC(CO)N(Cc1ccco1)C(=O)c1ccc(F)cc1Cl (stereo not shown)	13.87
O=C(O)[C@@H]1CN(CC(=O)N2CCCCCC2)C[C@H]1c1ccc(F)cc1	9.025
CCn1nnc2cc(C(=O)N3CCCC3Cn3cc(C)cn3)ccc21 (stereo not shown)	3.286
O=S(=O)(NCCc1c[nH]c2ccc(F)cc12)C1CCOCC1	18.51
CN1CCC(n2nc(Cc3cccs3)nc2-c2ccncc2)CC1	17.37
CC(C)C1=NOC2(CCN(Cc3c[nH]c4ccccc34)CC2)C1	4
O=C(c1ccn[nH]1)N1CCCC(n2cncn2)C1 (stereo not shown)	17.36
Cn1cc(C[C@H]2[C@H](O)CCN2C(=O)C2CCCC2)cn1	13.48
c1cn(-c2cnc(C3CCNCC3)cn2)cn1	13.5
COc1ccc(NC(=O)CCC2CCCN(Cc3ncon3)C2)c(C)c1 (stereo not shown)	10.73
Cc1ccc(N2C[C@H]3OCC[C@H]3[C@H](C(=O)NCc3ccco3)C2)nn1	18.1
CCS(=O)(=O)N1CCC2(CCN(CC(=O)N(C)C)C2=O)CC1	6.162
Cc1nc(C2CCCN(C(=O)CN3CCCC3=O)C2)sc1C (stereo not shown)	13.64
Cc1cc(C(=O)N2C[C@H](CO)C[C@H](CN3CCOCC3)C2)cnc1C	3.106
CC(C)(CO)Nc1cc(-c2ccncc2)ncn1	12.38
CC(C)COC(C)C(=O)NCc1ccccc1Cn1ccnc1 (stereo not shown)	5.615
CCC1=N[C@@]2(CC[C@@H]3CN(Cc4ccccc4F)C[C@@H]32)C(=O)N1CC	11.43
N#CC1CCN(C(=O)NCCc2ccc(Cl)s2)CC1	16.91
O=C1CCC2(CCN(c3ncc(F)cn3)CC2)N1Cc1ccncc1	7.092
CC(C)c1nc2c(n1C)CCN(Cc1cccc(OCC(N)=O)c1)C2	26.82
Cc1ccc(C(=O)N2CCc3ncc(Cn4cccn4)n3CC2)o1	11.78
COCCN1CCO[C@@H]2CN(Cc3ccccc3OC)C[C@@H]2C1	14.13
Cc1ccc(CN2CCC3(CC2)C(=O)N(CCO)CCN3C)o1	11.67
CCN1C[C@H]2CCN(C(=O)c3cc[nH]n3)CC[C@H]2S1(=O)=O	-10.73
Cc1nn2cc(CCNC(=O)c3cc(C(C)C)nn3C)nc2s1	5.645
CCN1C(=O)CCCC12CCCN(C(=O)c1cnccn1)C2 (stereo not shown)	12.46
c1nc2c(c(NC3CCC3)n1)CCNCC2	18.48
O=C(Cc1ccc2c(c1)OCC2)Nc1nn[nH]n1	15.99
COCCO[C@@H]1CCN(c2cc(OC)ncn2)[C@H]1Cc1cnn(C)c1	11.64
N#Cc1cccc(OCc2ccoc2C(=O)N2CCCCC2)c1	12.66
c1ccc(CCN2C[C@@H]3OCCN(c4ncccn4)[C@@H]3C2)cc1	14.92
COc1ccc(CN2CCN(CC3CC3)[C@@H]3CS(=O)(=O)C[C@@H]32)cc1C	7.821
O=C(NCCn1ccnc1)N1CCN(Cc2cccs2)CC1	7.317
CS(=O)(=O)NCc1cccc(COC2CCCCC2)c1	10.16
COCC1(CNC(=O)[C@@]23CNC[C@@H]2CN(C2CCCC2)C3)CC1	0.2564
CC(OCC(F)(F)F)C(=O)Nc1ccc(-n2cncn2)nc1 (stereo not shown)	3.472
Cc1ccc(OCC(=O)N2CCOCC(O)(CN3CCCC3)C2)cc1C (stereo not shown)	-2.521
CC(=O)N1CCO[C@@H]2CN(C(=O)c3ccc4ccccc4c3)CC[C@@H]2C1	10.22
CN(C)S(=O)(=O)N1CC[C@]2(C[C@@H](Oc3ncccc3F)CO2)C1	5.882
CO[C@@H]1CC[C@@H](N(C)C(=O)COc2ccc(F)cc2)[C@H]1O	12.24
Cc1ccc(OCC(=O)Nc2ncccc2OC(F)F)cc1	16.3
NCC(=O)N1CCCCC1c1ccc(F)cc1 (stereo not shown)	19.06
CC1CCCCN1C(=O)COCc1nc(-c2ccncc2)no1 (stereo not shown)	7.196
Cc1nc(CC(C)C)sc1C(=O)N1CCC(C2(C)OCCO2)CC1	11.42
O=C1CO[C@H]2CN(S(=O)(=O)c3ccccc3)C[C@H]2N1CC1CCCCC1	12.09
CC(C)n1cc(C(=O)N2Cc3ccccc3OC3(CCOCC3)C2)cn1	-1.712
CC(=O)c1cc(C(=O)N2CC[C@@H]3CC[C@H](C2)N3C)c(=O)[nH]c1C	2.062
COc1cc(CNc2cnn(C(C)(C)C)c(=O)c2Cl)ccn1	13.65
COc1cc(C)ccc1OCC(=O)Nc1ccnc(OCCN(C)C)c1	1.95
CC(C)c1nnc2n1CCN(CC(=O)Nc1sccc1C#N)C2	8.661
CN(C)c1ncccc1CNS(=O)(=O)c1ccccc1Cl	21.59
CCN1CCN(C(=O)c2[nH]c3ccccc3c2Cl)[C@H]2CS(=O)(=O)C[C@H]21	16.94
O=C(C1=CCCC1)N1C[C@@H]2COC[C@]2(COc2ncccc2F)C1	17.57
CCOc1ccc(C2C3=C(O)OCC3=Nc3nc(SC)nc(N)c32)cc1 (stereo not shown)	26.35
CC1c2ncc(COc3cccnc3)n2CCN1C(=O)C1=CCCC1 (stereo not shown)	11.2
Cn1ccnc1C1(O)CCN(C(=O)Cc2ccccc2)CC1	9.884
Cn1ccnc1CN1CCCN(C(=O)c2ccc(Cl)o2)CC1	13.39
O=C(CN1CCCCCC1)NCc1cccnc1Oc1ccccc1	14.7
O=C(CCc1ccccc1)N1CCCCC1Cn1cccn1 (stereo not shown)	3.867
CCN(CC1CCCN(CCc2cccc(OC)c2)C1)C(=O)CO (stereo not shown)	15.52
Cc1csc(N2CCN(Cc3ccccn3)CC2C)n1 (stereo not shown)	16.26
O=C(CNc1cc(-n2cnnn2)ccc1F)NCc1ccccc1	14.97
CC1CCN(C)c2ccccc2N1C(=O)c1ccnc(-n2cncn2)c1 (stereo not shown)	14.95
COc1ccc(Cn2cc(C(=O)N(C)Cc3ccn[nH]3)nn2)cc1	-3.753
O=C(c1cnccn1)N1CCN2C[C@H](Oc3cccnc3)C[C@H]2C1	7.5
COc1cccc(NC(=O)N(CCO)C2CCc3ccccc32)c1 (stereo not shown)	1.394
O=C(O)c1c(-c2cncnc2)ncc2c1CCN(Cc1cccnc1)C2	13.11
CC(CNC(=O)c1cnc[nH]1)Oc1ccccc1Br (stereo not shown)	10.53
CC(C)NC(=O)N1Cc2nccn2CC(COc2cccnc2)C1 (stereo not shown)	1.37
CN(CCC(O)c1ccccc1)c1cc(N2CCOCC2)ncn1 (stereo not shown)	6.164
CC(Nc1cccc2c1OCCO2)C(=O)NC(N)=O (stereo not shown)	12.53
Cc1c(C)n(Cc2ccncc2)c2nc3c(c(N)c12)CCCCC3	15.35
CC(=O)NC1CCCN(C(=O)CNc2cc(Cl)cc(Cl)c2)C1 (stereo not shown)	20.74
OCCn1nccc1C1CCN(CCOc2ccc(Cl)cc2)CC1	24

Once more, the final 8:

{"compound": "O=C(O)c1c(-c2cncnc2)ncc2c1CCN(Cc1cccnc1)C2", "inhibition": 13.11}
{"compound": "CC(CNC(=O)c1cnc[nH]1)Oc1ccccc1Br", "stereo": "stereo not shown", "inhibition": 10.53}
{"compound": "CC(C)NC(=O)N1Cc2nccn2CC(COc2cccnc2)C1", "stereo": "stereo not shown", "inhibition": 1.37}
{"compound": "CN(CCC(O)c1ccccc1)c1cc(N2CCOCC2)ncn1", "stereo": "stereo not shown", "inhibition": 6.164}
{"compound": "CC(Nc1cccc2c1OCCO2)C(=O)NC(N)=O", "stereo": "stereo not shown", "inhibition": 12.53}
{"compound": "Cc1c(C)n(Cc2ccncc2)c2nc3c(c(N)c12)CCCCC3", "inhibition": 15.35}
{"compound": "CC(=O)NC1CCCN(C(=O)CNc2cc(Cl)cc(Cl)c2)C1", "stereo": "stereo not shown", "inhibition": 20.74}
{"compound": "OCCn1nccc1C1CCN(CCOc2ccc(Cl)cc2)CC1", "inhibition": 24}

Data taken from ChEMBL document CHEMBL3988442, “University of Dundee, Small-Polar-MMV Screening Library” (2021).